## Results of single-concentration screens

Each number is a percent effect as filed.
How 0% and 100% were set is not recorded. Most values in the screen are low, and negative values occur.
This is an unselected part of the compounds tested.

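Whole-parasite assay of Trypanosoma brucei over 72 hours; the read-out is not stated. Concentration: 30 µM. The record gives no direction; compounds that gave an IC50 in retests scored well above the rest, so higher reads as stronger inhibition. Values scatter widely below zero; nearly all retest evidence comes from the higher of the two concentrations used. Of about 64,000 compounds tested this way, about 940 (1.5%) reached 50% or more in at least one test.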

CCOc1cncc(N(C)CC(=O)NC)n1 read -31.25%.
CC(C)(C)OC(=O)Cn1cccc(S(=O)(=O)N2CCCC2)c1=O read -11.05%.
CCNc1ncc(C2CC(=O)Nc3c2cnn3Cc2ccncc2)cn1 (stereo not shown) read -26.9%.
Cc1nnc(SC2CCN(c3sccc3C#N)C2=O)s1 (stereo not shown) read -18.57%.
CCN(CCn1cccn1)Cc1nc(-c2ccc(C)o2)oc1C read -23.73%.
CCc1noc(CS(=O)(=O)Cc2ccccc2Cl)n1 read -11.57%.
c1ccc(-c2nc(CCNC3CCOC4(CCOCC4)C3)no2)cc1 (stereo not shown) read -11.53%.
N#Cc1ccccc1CN1CCc2sccc2C1 read -46.19%.
CC(C)NC[C@@]1(COc2ccccc2)C[C@@H](O)[C@@H](O)C1.Cl read -12%.
CC(C)c1ncc(C(=O)N(C)c2ccc(Br)cn2)s1 read -56.99%.
CC(C)c1ncc(CN2C[C@@H](CN3CCC(O)CC3)[C@@H](CO)C2)cn1 read -20.44%.
Cc1cc(C)n(C2CN(c3ncnc4c3CCC4)C2)n1 read 6.704%.
Cc1ccc(O)c(C(=O)N2CCC3(CCCNC3)C2)c1 (stereo not shown) read -33.1%.
Cc1[nH]c2nc(CNc3cccc(Cl)c3)nn2c(=O)c1C read 5.663%.
OCc1csc(N2C[C@@H](CN3CCCCCC3)[C@@H](CO)C2)n1 read -1.364%.
Cc1noc(C)c1CN1CCCC2(CCN(C(=O)CC3CC3)C2)C1 (stereo not shown) read -24.75%.
CCN(CC)c1ccc(CNS(=O)(=O)C2CCOCC2)cc1F read -2.73%.
COCCN1CCC2(CC1)CC(c1cccnc1)C(=O)N2C (stereo not shown) read -56.93%.
[H][C@@]12CCC(=O)N(CCc3ccc(C)o3)[C@]1([H])CCN(Cc1cnn(C)c1)C2 read -33.33%.
[H][C@]12CC[C@]([H])(CN(Cc3cscn3)C1)N(C(=O)CN1CCOC1=O)C2 read -38.65%.
Cc1cc(C(=O)N2CCCC(c3cc(C(F)(F)F)[nH]n3)C2)[nH]n1 (stereo not shown) read -2.404%.
CN(Cc1cccc(-n2cccn2)c1)C(=O)c1ccnc(N)c1 read -41.09%.
[H][C@]12C[C@H](C(=O)NC)N(S(C)(=O)=O)[C@@]1([H])CN(C(=O)c1cscn1)C2 read 31.32%.
NC(=O)NCC1CCCCN1C(=O)c1cc(F)cc(F)c1 (stereo not shown) read -17.02%.
Cc1cnc(N2CCOC3(COCCN(c4nccs4)C3)C2)nc1 (stereo not shown) read -31.83%.
[H][C@@]12CO[C@@H](CNC(=O)c3ccco3)[C@]1([H])CCN(c1cccc(C)n1)C2 read -0.4013%.
Cn1cc(C(=O)N2CCCC2c2ccc3c(c2)OCCO3)ccc1=O (stereo not shown) read 0.5949%.
Cc1cccc(CN2CCc3ncnc(N4CCOCC4)c3CC2)n1.O=C(O)C(F)(F)F read -57.04%.
[H][C@@]12CS(=O)(=O)C[C@]1([H])N(Cc1nccn1CC)CCN2Cc1ccc(C)o1 read 13.72%.
O=C(NCc1nnc2n1CCCC2)c1cn(-c2ccccc2)nn1 read -82.37%.
CC(C)C(CCO)NC(=O)Nc1cc(F)ccc1-n1cccn1 (stereo not shown) read -14.63%.
Cc1nc(NC(=O)N2CCCC(N(C)C)C2)nn1C (stereo not shown) read -4.575%.
COCc1cncc2c1CCN(C(=O)c1ccsc1)C2 read -67.33%.
CCOCCN1CCN(Cc2cccc(C(=O)N(C)C)c2)CC1C (stereo not shown) read 11.63%.
O=C(NCc1ccccc1Cn1cncn1)C1CCCC1 read 19.64%.
CC(C)Cc1nc(CO)n(-c2ccc3c(c2)OCCO3)n1 read -0.3324%.
CC1=C(c2ccc(C)cc2)S(=O)(=O)N=C1N1CCc2ccccc21 read -5.371%.
Cc1cnc(CN2CCC(N(C)Cc3nnc(C4CC4)n3C)C2)cn1 (stereo not shown) read 6.88%.
O=C(NCC(O)c1cccc(O)c1)C1CCN(C2CCCCC2)CC1 (stereo not shown) read -62.7%.
O=C(Cc1cccc(O)c1)N1CCC2(CC1)c1ccccc1CC2O (stereo not shown) read -36.46%.
O=C(NCC1(c2cccs2)CCCCC1)N1CCOC(CO)C1 (stereo not shown) read 0.2309%.
OCC1COCCN(Cc2cc(C3CCCCC3)no2)C1 (stereo not shown) read -6.563%.
CCCn1cc(CN2CCC(c3[nH]ncc3S(C)(=O)=O)C2)cn1 (stereo not shown) read -7.274%.
COc1ccc(OC)c(-n2c(COC(C)C)n[nH]c2=O)c1 read -13.11%.
Cc1nc(C2CCCCN2C(=O)c2ccccc2)ncc1C(=O)N(C)C (stereo not shown) read -19.04%.

6 of the entries, repeated:

SMILES,percent effect
CC1=C(c2ccc(C)cc2)S(=O)(=O)N=C1N1CCc2ccccc21,-5.371
CCNc1ncc(C2CC(=O)Nc3c2cnn3Cc2ccncc2)cn1 (stereo not shown),-26.9
CN(Cc1cccc(-n2cccn2)c1)C(=O)c1ccnc(N)c1,-41.09
OCC1COCCN(Cc2cc(C3CCCCC3)no2)C1 (stereo not shown),-6.563
Cc1cc(C)n(C2CN(c3ncnc4c3CCC4)C2)n1,6.704
NC(=O)NCC1CCCCN1C(=O)c1cc(F)cc(F)c1 (stereo not shown),-17.02

Source: ChEMBL document CHEMBL3988442, “University of Dundee, Small-Polar-MMV Screening Library” (2021).